No constants are given. Whether binding was seen depends on the method and setting. In cells and extracts the contact can be indirect. A result given as binding can be weak or reduced; the word gives no strength.
Molecular target: ZO-1 (bovine (endogenous in primary bovine retinal endothelial cells))
Assay: co-IP; co-immunoprecipitation of endogenous protein in primary bovine retinal endothelial cells (BREC); interaction most abundant with VEGF/norrin co-stimulation

binding: binds
B1: disheveled-1 (Dvl1) (protein, UniProt F1N6M9 1-647)
chain: MPSCPASTAVWSPGWFWLRVLTRMQGLRALMDTQTCPRLLSGQVASGTPGLPPSTRMWPAAAMGWITRLARSHWSATGGSEPDAGTVKRGIPWPGPVPAVPTAARTNGHPRGDRRRDLGLPPDSASTVLSSELESSSFIDSDEDDNTSRLSSSTEQSTSSRLIRKHKRRRRKQRLRQTDRASSFSSITDSTMSLNIITVTLNMERHHFLGISIVGQSNDRGDGGIYIGSIMKGGAVAADGRIEPGDMLLQVNDVNFENMSNDDAVRVLREIVSQTGPISLTVAKCWDPTPRSYFTIPRADPVRPIDPAAWLSHTAALTGALPRYGTSPCSSAVTRTSSSSLTSSVPGAPQLEEAPLTVKSDMGAVVRVMQLPDSGLEIRDRMWLKITIANAVIGADVVDWLYAHLEGFRERREARKYASSMLKRGFLRHTVNKVTFSEQCYYVFGDLCSNLAALNLNSGSSGASDQDTLAPLPHPAAPWPLGQGYPYQYPGPPPCFPPAYQDPGFGYGSGSAGSQQSEGSKSSGSTRSAGGSSRRALGREKESRSAGAGGSGSESDHTVPSGAGGSGWRERPPSQLSRGSSPRSQASAAAPGLPPLHPLTKAYSVVGGPPGGPPVRELAAVPPELTGSRQSFQKAMGNPCEFFVDIM

From article PMC8677339
